Results deposited as PubChem BioAssay AID1259254 (NCATS, 2017)

Test: 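Finding genes that stop cells copying their DNA twice in one cycle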 (primary screen)
System: human HCT116 colorectal cancer cells
Reagent: single siRNA against human genes
Timing: 3 days
Measurement: 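Imaged Hoechst DNA stain sorts each cell into a cycle phase by DNA amount; per plate, G2 fraction set to 0% for non-targeting and 100% for GMNN siRNA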
Direction: G2 robust z-score and G2 cells, % of GMNN control: higher = more G2 cells, more excess DNA replication; raw share of cells in G2: higher = larger share of cells with G2 DNA content
Call rule: 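An siRNA counts as active if its G2 robust z-score lies at least 5 MADs above the screen median; here such calls match roughly 38% of GMNN control or more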
Here is an unselected part of about 59,000 deposited reagents. Over the whole deposit, about 1,550 (2.6%) got an active call. 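G2 share is only a proxy for re-replication; each gene was hit by three separate siRNAs, and active genes were retested.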 Raw values are not corrected between plates. Entries without a mark were called inactive. Reagents against one gene are numbered here. Reagent sequences are not shown. The record does not give: the amount of reagent.

no.	target gene	reagent no.	G2 robust z-score	G2 cells, % of GMNN control	raw share of cells in G2 (%)
1	PTPRD (protein tyrosine phosphatase receptor type D)	1	-1.12	-4.9	3.2
2	PTPRD (protein tyrosine phosphatase receptor type D)	2	-0.763	-2.4	3.58
3	PTPRD (protein tyrosine phosphatase receptor type D)	3	-0.761	-2.39	2.78
4	FGFBP1 (fibroblast growth factor binding protein 1)	1	-0.757	-2.36	4.26
5	FGFBP1 (fibroblast growth factor binding protein 1)	2	-0.703	-1.98	3.12
6	FGFBP1 (fibroblast growth factor binding protein 1)	3	-0.121	2.11	4.17
7	RAD51D (RAD51 paralog D)	1	-0.29	0.926	5.3
8	RAD51D (RAD51 paralog D)	2	-0.148	1.93	5.42
9	RAD51D (RAD51 paralog D)	3	2.29	19.1	10.5
10	CFAP57 (cilia and flagella associated protein 57)	1	0.0918	3.61	5.04
11	CFAP57 (cilia and flagella associated protein 57)	2	1.54	13.8	7.18
12	CFAP57 (cilia and flagella associated protein 57)	3	0.282	4.95	4.8
13	ZNF791 (zinc finger protein 791)	1	0.254	4.75	5.19
14	ZNF791 (zinc finger protein 791)	2	0.338	5.35	4.93
15	ZNF791 (zinc finger protein 791)	3	-0.231	1.34	3.63
16	CDC16 (cell division cycle 16)	1	3.73	29.2	15.2
17	CDC16 (cell division cycle 16)	2	3.98	31	16.1
18	CDC16 (cell division cycle 16)	3	1.41	12.9	10.4
19	GNG13 (G protein subunit gamma 13)	1	0.303	5.1	5.76
20	GNG13 (G protein subunit gamma 13)	2	-0.583	-1.14	5.44
21	GNG13 (G protein subunit gamma 13)	3	1.02	10.1	7.98
22	ADGRA1 (adhesion G protein-coupled receptor A1)	1	-0.41	0.0856	5.87
23	ADGRA1 (adhesion G protein-coupled receptor A1)	2	-1.23	-5.68	2.53
24	ADGRA1 (adhesion G protein-coupled receptor A1)	3	-0.433	-0.0782	3.24
25	ST6GALNAC5 (ST6 N-acetylgalactosaminide alpha-2,6-sialyltransferase 5)	1	0.0993	3.67	5.52
26	ST6GALNAC5 (ST6 N-acetylgalactosaminide alpha-2,6-sialyltransferase 5)	2	4	31.1	16.3
27	ST6GALNAC5 (ST6 N-acetylgalactosaminide alpha-2,6-sialyltransferase 5)	3	-0.392	0.21	5.52
28	AGRP (agouti related neuropeptide)	1	1.41	12.9	9.1
29	AGRP (agouti related neuropeptide)	2	-0.153	1.89	5.75
30	AGRP (agouti related neuropeptide)	3	-0.0903	2.33	4.86
31	DMP1 (dentin matrix acidic phosphoprotein 1)	1	2.13	18	13.7
32	DMP1 (dentin matrix acidic phosphoprotein 1)	2	0.414	5.88	6.24
33	DMP1 (dentin matrix acidic phosphoprotein 1)	3	-0.903	-3.38	2.2
34	OTUD6B (OTU deubiquitinase 6B)	1	1.41	12.9	7.76
35	OTUD6B (OTU deubiquitinase 6B)	2	-0.492	-0.491	2.79
36	OTUD6B (OTU deubiquitinase 6B)	3	-0.718	-2.08	3.48
37	TMC1 (transmembrane channel like 1)	1	0.583	7.07	6.92
38	TMC1 (transmembrane channel like 1)	2	-0.721	-2.11	2.7
39	TMC1 (transmembrane channel like 1)	3	0.211	4.45	3.12
40	RPS23 (ribosomal protein S23)	1	4.73	36.2	20.4
41	RPS23 (ribosomal protein S23)	2	2.66	21.7	12.8
42	RPS23 (ribosomal protein S23)	3	3.48	27.5	13.3
43	CCR5 (C-C motif chemokine receptor 5)	1	3	24.1	14.4
44	CCR5 (C-C motif chemokine receptor 5)	2	0.839	8.87	7.62
45	CCR5 (C-C motif chemokine receptor 5)	3	-0.0884	2.35	3.99
46	HDAC6 (histone deacetylase 6)	1	1.59	14.2	10.5
47	HDAC6 (histone deacetylase 6)	2	-0.628	-1.45	4.66
48	HDAC6 (histone deacetylase 6)	3	-0.778	-2.5	2.35
49	KLK14 (kallikrein related peptidase 14)	1	-1.87	-10.2	2
50	KLK14 (kallikrein related peptidase 14)	2	-0.996	-4.04	3.48
51	KLK14 (kallikrein related peptidase 14)	3	-0.261	1.13	4.33
52	LOXL3 (lysyl oxidase like 3)	1	-0.265	1.1	5.2
53	LOXL3 (lysyl oxidase like 3)	2	0.0201	3.11	6.72
54	LOXL3 (lysyl oxidase like 3)	3	0.277	4.91	5.97
55	SLC43A1	1	0.5	6.49	8.01
56	SLC43A1	2	0.787	8.5	7.27
57	SLC43A1	3	0.212	4.46	4.92
58	PTPN14 (protein tyrosine phosphatase non-receptor type 14)	1	1.33	12.3	8.81
59	PTPN14 (protein tyrosine phosphatase non-receptor type 14)	2	-0.309	0.795	4.54
60	PTPN14 (protein tyrosine phosphatase non-receptor type 14)	3	0.781	8.47	6.04
61	ADAM19 (ADAM metallopeptidase domain 19)	1	2.16	18.2	11.9
62	ADAM19 (ADAM metallopeptidase domain 19)	2	-0.743	-2.26	4.11
63	ADAM19 (ADAM metallopeptidase domain 19)	3	0.664	7.64	6.76
64	SLC19A1	1	0.272	4.88	7.32
65	SLC19A1	2	0.59	7.12	6.31
66	SLC19A1	3	0.488	6.4	6.74
67	DUSP22 (dual specificity phosphatase 22)	1	-0.0453	2.65	4.29
68	DUSP22 (dual specificity phosphatase 22)	2	0.66	7.61	7.27
69	DUSP22 (dual specificity phosphatase 22)	3	-0.522	-0.706	4.09

Single entries from above.
Entry for DMP1 (dentin matrix acidic phosphoprotein 1) #1 under “raw share of cells in G2 (%)”: 13.7
Result of SLC19A1 #1 in “raw share of cells in G2 (%)”: 7.32
RAD51D (RAD51 paralog D) #2, G2 cells, % of GMNN control = 1.93
Under “G2 robust z-score”, CFAP57 (cilia and flagella associated protein 57) #2 has 1.54
ADAM19 (ADAM metallopeptidase domain 19) #3, G2 robust z-score → 0.664
Result of CFAP57 (cilia and flagella associated protein 57) #1 under “G2 cells, % of GMNN control”: 3.61
